Assay results as given in PMC7060358.
Results are given in words; binding and its absence hold for the method and conditions named. In cells and extracts the contact can be indirect. Some entries that bind do so weakly or less than the wild type. Each block holds one molecule with its values, some of them ahead of it.

Amino acid sequences for entries named in this document (tags omitted). Residues count along the entry.
UniProt Q9EQY0, residues 21-977: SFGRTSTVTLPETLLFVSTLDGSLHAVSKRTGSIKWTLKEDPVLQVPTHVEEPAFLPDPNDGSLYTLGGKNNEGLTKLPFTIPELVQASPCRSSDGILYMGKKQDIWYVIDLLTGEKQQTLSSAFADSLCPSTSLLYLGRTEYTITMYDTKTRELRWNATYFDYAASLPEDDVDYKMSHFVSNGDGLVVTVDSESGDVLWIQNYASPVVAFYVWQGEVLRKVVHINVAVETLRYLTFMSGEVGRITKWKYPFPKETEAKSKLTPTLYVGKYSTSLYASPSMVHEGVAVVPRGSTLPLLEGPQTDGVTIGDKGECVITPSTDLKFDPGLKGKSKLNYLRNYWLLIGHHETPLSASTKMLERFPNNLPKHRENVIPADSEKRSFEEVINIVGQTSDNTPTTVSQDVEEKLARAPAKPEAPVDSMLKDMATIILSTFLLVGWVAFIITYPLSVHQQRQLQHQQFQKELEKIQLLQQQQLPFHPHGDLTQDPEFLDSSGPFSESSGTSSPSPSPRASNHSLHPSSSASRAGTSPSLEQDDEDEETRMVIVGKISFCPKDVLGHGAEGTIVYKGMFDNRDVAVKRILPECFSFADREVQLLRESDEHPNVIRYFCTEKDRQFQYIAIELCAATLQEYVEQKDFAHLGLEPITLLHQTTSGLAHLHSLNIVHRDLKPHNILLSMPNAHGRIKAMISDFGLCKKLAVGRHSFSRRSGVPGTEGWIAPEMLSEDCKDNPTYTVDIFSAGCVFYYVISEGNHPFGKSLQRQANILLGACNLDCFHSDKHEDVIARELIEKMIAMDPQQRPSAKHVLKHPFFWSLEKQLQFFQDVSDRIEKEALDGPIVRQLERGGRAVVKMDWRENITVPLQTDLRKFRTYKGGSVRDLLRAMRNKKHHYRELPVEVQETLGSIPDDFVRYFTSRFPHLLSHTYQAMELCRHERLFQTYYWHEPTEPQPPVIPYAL
UniProt Q8R4B8: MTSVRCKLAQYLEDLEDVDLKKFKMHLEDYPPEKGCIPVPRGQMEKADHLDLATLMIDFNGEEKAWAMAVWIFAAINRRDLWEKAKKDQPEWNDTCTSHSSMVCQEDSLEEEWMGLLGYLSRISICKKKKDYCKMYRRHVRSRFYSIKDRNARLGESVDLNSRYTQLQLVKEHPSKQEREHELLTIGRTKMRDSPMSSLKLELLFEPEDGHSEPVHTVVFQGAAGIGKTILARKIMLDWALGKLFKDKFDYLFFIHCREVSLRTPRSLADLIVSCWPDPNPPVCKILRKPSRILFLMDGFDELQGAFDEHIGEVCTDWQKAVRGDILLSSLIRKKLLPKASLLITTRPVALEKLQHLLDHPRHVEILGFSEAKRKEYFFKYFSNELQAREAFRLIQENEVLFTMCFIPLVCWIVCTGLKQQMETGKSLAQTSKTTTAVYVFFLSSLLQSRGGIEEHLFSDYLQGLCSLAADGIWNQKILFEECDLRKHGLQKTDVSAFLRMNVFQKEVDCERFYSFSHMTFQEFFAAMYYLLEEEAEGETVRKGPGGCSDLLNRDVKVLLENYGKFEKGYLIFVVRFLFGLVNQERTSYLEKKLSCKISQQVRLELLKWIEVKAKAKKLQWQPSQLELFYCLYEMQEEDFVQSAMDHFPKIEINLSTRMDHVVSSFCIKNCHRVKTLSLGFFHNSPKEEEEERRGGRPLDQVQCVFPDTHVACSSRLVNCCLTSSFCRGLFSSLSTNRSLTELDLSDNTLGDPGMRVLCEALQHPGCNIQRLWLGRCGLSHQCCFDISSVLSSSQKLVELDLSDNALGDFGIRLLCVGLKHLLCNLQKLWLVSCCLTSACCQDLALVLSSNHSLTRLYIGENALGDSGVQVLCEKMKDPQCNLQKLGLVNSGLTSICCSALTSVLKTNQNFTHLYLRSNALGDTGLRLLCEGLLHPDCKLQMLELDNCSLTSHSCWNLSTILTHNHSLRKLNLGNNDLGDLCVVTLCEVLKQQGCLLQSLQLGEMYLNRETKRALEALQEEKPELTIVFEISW

Experiments:
[1] = target: T1, thioredoxin interacting protein (mouse (endogenous in lung tissue)) (UniProt Q8BG60); experiment: co-IP; mouse lung tissue lysates (saline, A. fumigatus, A. fumigatus + IC87114, A. fumigatus + 4-PBA); lysis in 50 mM Tris-HCl pH 8.0, 150 mM NaCl, 1 mM DTT, 1 mM EDTA, 1% deoxycholate, 1% Triton X-100, 1% SDS, then diluted; antibody 1:100 overnight, protein A/G-Sepharose 2 hr; immunoblot
T1 sequence: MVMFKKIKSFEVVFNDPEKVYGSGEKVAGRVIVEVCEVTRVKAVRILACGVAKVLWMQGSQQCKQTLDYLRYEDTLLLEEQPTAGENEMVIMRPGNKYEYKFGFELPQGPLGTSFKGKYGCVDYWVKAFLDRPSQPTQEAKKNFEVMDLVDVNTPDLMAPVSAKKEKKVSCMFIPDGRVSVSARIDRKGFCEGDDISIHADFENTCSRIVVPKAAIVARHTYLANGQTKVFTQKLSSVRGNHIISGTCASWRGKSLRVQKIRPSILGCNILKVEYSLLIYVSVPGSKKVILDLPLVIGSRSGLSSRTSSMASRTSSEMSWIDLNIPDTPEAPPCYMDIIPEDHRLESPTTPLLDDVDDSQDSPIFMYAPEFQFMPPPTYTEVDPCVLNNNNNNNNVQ

[2] = target: inositol‐requiring transmembrane kinase/endoribonuclease 1α (mouse (endogenous in lung tissue)) (UniProt Q9EQY0); experiment: as above
[3] = target: inositol‐requiring transmembrane kinase/endoribonuclease 1α (mouse (endogenous in lung tissue)) (UniProt Q9EQY0); experiment: condition: only A. fumigatus-challenged mice without IC87114 or 4-PBA; co-IP; mouse lung tissue lysates of A. fumigatus-challenged mice without drug; immunoprecipitated with anti-IRE1α, immunoblotted with anti-PDIA6
[4] = target: NOD‐like receptor protein (NLRP3), mouse lung (mouse (endogenous in lung tissue)) (UniProt Q8R4B8); experiment: condition: only A. fumigatus-challenged mice treated with IC87114 or 4-PBA; co-IP; mouse lung tissue lysates of A. fumigatus-challenged mice treated with 1 mg/kg IC87114 or 80 mg/kg 4-PBA; immunoprecipitated with anti-NLRP3, immunoblotted for ASC and caspase-1
[5] = target: NOD‐like receptor protein (NLRP3), mouse lung (mouse (endogenous in lung tissue)) (UniProt Q8R4B8); experiment: co-IP; mouse lung tissue lysates (saline, A. fumigatus, A. fumigatus + IC87114, A. fumigatus + 4-PBA); lysis in 50 mM Tris-HCl pH 8.0, 150 mM NaCl, 1 mM DTT, 1 mM EDTA, 1% deoxycholate, 1% Triton X-100, 1% SDS, then diluted; antibody 1:100 overnight, protein A/G-Sepharose 2 hr; immunoblot

binding [1]: binds
Molecule: NOD‐like receptor protein (NLRP3), mouse lung (from UniProt Q8R4B8 1-1033)

binding [2]: binds
binding [3]: no binding
B1: protein disulfide isomerase family A member (PDIA)6 (protein, UniProt Q922R8 20-440)
chain: LYSSSDDVIELTPSNFNREVIQSDGLWLVEFYAPWCGHCQRLTPEWKKAATALKDVVKVGAVNADKHQSLGGQYGVQGFPTIKIFGANKNKPEDYQGGRTGEAIVDAALSALRQLVKDRLGGRSGGYSSGKQGRGDSSSKKDVVELTDDTFDKNVLDSEDVWMVEFYAPWCGHCKNLEPEWAAAATEVKEQTKGKVKLAAVDATVNQVLASRYGIKGFPTIKIFQKGESPVDYDGGRTRSDIVSRALDLFSDNAPPPELLEIINEDIAKKTCEEHQLCVVAVLPHILDTGAAGRNSYLEVLLKLADKYKKKMWGWLWTEAGAQYELENALGIGGFGYPAMAAINARKMKFALLKGSFSEQGINEFLRELSFGRGSTAPVGGGSFPTITPREPWDGKDGELPVEDDIDLSDVELDDLEKDEL

binding [4]: no binding
binding [5]: binds
B2: caspase‐1, mouse lung (protein, UniProt P29452 1-402)
chain: MADKILRAKRKQFINSVSIGTINGLLDELLEKRVLNQEEMDKIKLANITAMDKARDLCDHVSKKGPQASQIFITYICNEDCYLAGILELQSAPSAETFVATEDSKGGHPSSSETKEEQNKEDGTFPGLTGTLKFCPLEKAQKLWKENPSEIYPIMNTTTRTRLALIICNTEFQHLSPRVGAQVDLREMKLLLEDLGYTVKVKENLTALEMVKEVKEFAACPEHKTSDSTFLVFMSHGIQEGICGTTYSNEVSDILKVDTIFQMMNTLKCPSLKDKPKVIIIQACRGEKQGVVLLKDSVRDSEEDFLTDAIFEDDGIKKAHIEKDFIAFCSSTPDNVSWRHPVRGSLFIESLIKHMKEYAWSCDLEDIFRKVRFSFEQPEFRLQMPTADRVTLTKRFYLFPGH
